According to patent US20090099169A1, “Benzofuran Compounds As EP1 Receptor Antagonists” (GLAXO GROUP LIMITED, priority 2006, published 2009):
Counter-ions that a name gives are not always drawn. Some of these results come from one statement about several compounds together.

target: T1, human EP1 receptor (Homo sapiens, UniProt P34995); test: Binding assay for the human prostanoid EP1 receptor (radioligand competition); parameters: expressed in transfected cells; host or cells: CHO-K1 (membranes); details: CHO-K1 membranes; [3H]-PGE2 for Examples 1-17, 19, 33, 34, 60 and 61, 3-{2-[5-Bromo-2-(2,4-difluorobenzyloxy)-phenyl]-5-methyl-pyrrol-1-yl}-6-[3H3-methoxy]methoxy-benzoic acid for the remaining; averages of a number of experiments
T1 sequence (P34995 1-402): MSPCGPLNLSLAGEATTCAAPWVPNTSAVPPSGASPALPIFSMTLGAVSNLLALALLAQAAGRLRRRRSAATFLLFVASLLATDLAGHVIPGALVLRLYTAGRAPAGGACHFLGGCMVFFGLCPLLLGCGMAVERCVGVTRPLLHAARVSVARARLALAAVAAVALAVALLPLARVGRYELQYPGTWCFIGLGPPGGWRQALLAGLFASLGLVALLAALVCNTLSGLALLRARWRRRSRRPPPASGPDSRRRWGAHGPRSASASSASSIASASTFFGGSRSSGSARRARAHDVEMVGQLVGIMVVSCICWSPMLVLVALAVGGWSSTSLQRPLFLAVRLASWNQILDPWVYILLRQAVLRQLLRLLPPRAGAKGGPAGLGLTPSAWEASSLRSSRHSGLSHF
Method: Compound potencies are determined using a radioligand binding assay. In this assay compound potencies are determined from their ability to compete with tritiated prostaglandin E2 ([^3H]-PGE2) for binding to the human EP1 receptor.
This assay utilises Chinese hamster ovary-K1 (CHO-K1) cells into which a stable vector containing the EP1 cDNA has previously been transfected. Cells are cultured in suitable flasks containing culture medium such as DMEM:F-12 supplemented with 10% v/v foetal calf serum, 2 mM L-glutamine, 0.25 mg/ml geneticin, 10 μg/ml puromycin and 10 μM indomethacin.
Cells are detached from the culture flasks by incubation in calcium and magnesium free phosphate buffered saline containing 1 mM disodium ethylenediaminetetraacetic acid (Na2EDTA) and […] indomethacin for 5 min. The cells are isolated by centrifugation at 250×g for 5mins and suspended in an ice cold buffer such as 50 mM Tris, 1 mM Na2EDTA, 140 mM NaCl, 10 μM indomethacin (pH 7.4). The cells are homogenised using a Polytron tissue disrupter (2×10 s burst at full setting), centrifuged at 48,000×g for 20mins and the pellet containing the membrane fraction is washed (optional) three times by suspension and centrifugation at 48,000×g for 20mins. The final membrane pellet is suspended in an assay buffer such as 10 mM 2-[N-morpholino]ethanesulphonic acid, 1 mM Na2EDTA, 10 mM MgCl2 (pH 6). Aliquots are frozen at −80° C. until required.
(§1) For the binding assay the cell membranes, competing compounds and [^3H]-PGE2 (3 nM final assay concentration) are incubated in a final volume of 100 μl for 30 min at 30° C. All reagents are prepared in assay buffer. Reactions are terminated by rapid vacuum filtration over GF/B filters using a Brandell cell harvester. The filters are washed with ice cold assay buffer, dried and the radioactivity retained on the filters is measured by liquid scintillation counting in Packard TopCount scintillation counter.
The data are analysed using non linear curve fitting techniques to determine the concentration of compound producing 50% inhibition of specific binding (IC50).
Alternatively a similar assay may be carried out using 3-{2-[5-Bromo-2-(2,4-difluoro-benzyloxy)-phenyl]-5-methyl-pyrrol-1-yl}-6-[^3H3-methoxy]methoxy-benzoic acid instead of [^3H]-PGE2.
For the binding assay using 3-{2-[5-Bromo-2-(2,4-difluoro-benzyloxy)-phenyl]-5-methyl-pyrrol-1-yl}-6-[^3H3-methoxy]methoxy-benzoic acid instead of [^3H]-PGE2 the assay is carried out using a similar procedure to that described above using [^3H]-PGE2 with the following changes:
as §1, with “The” for “For the binding assay the”, “3-{2-[5-Bromo-2-(2,4-difluoro-benzyloxy)-phenyl]-5-methyl-pyrrol-1-yl}-6-[^3H3-methoxy]methoxy-benzoic acid (0.2” for “[^3H]-PGE2 (3”, “400” for “100”, “45” for “30”, “37°” for “30°”, “water at ambient temperature,” for “ice cold assay buffer,”
The preparation of 3-{2-[5-Bromo-2-(2,4-difluoro-benzyloxy)-phenyl]-5-methyl-pyrrol-1-yl}-6-methoxy-benzoic acid is described in WO 03/101959 and in Hall et al, Biorg. Med. Chem. Lett., 2007, 17, 916-920. The tritiated version may be prepared via conventional routes, e.g. from 3-{2-[5-bromo-2-(2,4-difluoro-benzyloxy)-phenyl]-5-methyl-pyrrol-1-yl}-6-hydroxy-benzoic acid or 3-{2-[5-bromo-2-(2,4-difluoro-benzyloxy)-phenyl]-5-methyl-pyrrol-1-yl}-6-hydroxy-benzoic acid methyl ester.

| Compound | pIC50 value (binding assay for the human prostanoid EP1 receptor) |
| --- | --- |
| Cc1cc(C(N)=O)nn1Cc1cc(C#N)cc2cc(C(C)C)oc12 [Example 41, 1-{[5-Cyano-2-(1-methylethyl)-1-benzofuran-7-yl]methyl}-5-methyl-1H-pyrazole-3-carboxamide] | ≥ 6 |
| CC(C)c1cc2cc(Cl)cc(Cc3ccc(-c4nc5cc(CN6CCCC6)ccc5[nH]4)o3)c2o1 [Example 12, 2-(5-{[5-Chloro-2-(1-methylethyl)-1-benzofuran-7-yl]methyl}-2-furanyl)-5-(1-pyrrolidinylmethyl)-1H-benzimidazole Hydrochloride] | ≥ 6 |
| CC(C)c1cc2cc(Cl)cc(Cc3ccc(C(=O)NN4CCCCC4)o3)c2o1 [Example 43, 5-{[5-Chloro-2-(1-methylethyl)-1-benzofuran-7-yl]methyl}-N-1-piperidinyl-2-furancarboxamide] | ≥ 6 |
| Cc1cc(C(=O)Nc2ccc(CN3CC[C@@H](O)C3)cc2)nn1Cc1cc(Cl)cc2cc(C(C)C)oc12 [Example 17, 1-{[5-Chloro-2-(1-methylethyl)-1-benzofuran-7-yl]methyl}-N-(4-{[(3R)-3-hydroxy-1-pyrrolidinyl]methyl}phenyl)-5-methyl-1H-pyrazole-3-carboxamide hydrochloride] | ≥ 6 |
| Cc1cc(C(=O)NN2CCOCC2)nn1Cc1cc(C#N)cc2cc(C(C)C)oc12 [Example 45, 1-{[5-Cyano-2-(1-methylethyl)-1-benzofuran-7-yl]methyl}-5-methyl-N-4-morpholinyl-1H-pyrazole-3-carboxamide] | ≥ 6 |
| CC(C)c1cc2cc(Cl)cc(Cc3ccc(C(=O)NN4CCOCC4)o3)c2o1 [Example 42, 5-{[5-Chloro-2-(1-methylethyl)-1-benzofuran-7-yl]methyl}-N-4-morpholinyl-2-furancarboxamide] | ≥ 6 |
| Cc1cc(C(=O)NCC2CCNCC2)nn1Cc1cc(Cl)cc2cc(C(C)C)oc12 [Example 34, 1-{[5-Chloro-2-(1-methylethyl)-1-benzofuran-7-yl]methyl}-5-methyl-N-(4-piperidinylmethyl)-1H-pyrazole-3-carboxamidehydrochloride] | ≥ 6 |
| CC(C)c1cc2cc(Cl)cc(Cc3ccc(C(=O)NN(C)C)o3)c2o1 [Example 39, 5-{[5-Chloro-2-(1-methylethyl)-1-benzofuran-7-yl]methyl}-N′,N′-dimethyl-2-furancarbohydrazide] | ≥ 6 |
| Cc1cc(C(=O)[O-])nn1Cc1cc(Cl)cc2cc(C3CC3)oc12.[Na+] [Example 23, Sodium 1-[(5-chloro-2-cyclopropyl-1-benzofuran-7-yl)methyl]-5-methyl-1H-pyrazole-3-carboxylate] | ≥ 6 |
| CC(C)c1cc2cc(Cl)cc(Cc3ccc(C(=O)Nc4ccc(CN5CCCC5)cc4)o3)c2o1 [Example 53, 5-{[5-Chloro-2-(1-methylethyl)-1-benzofuran-7-yl]methyl}-N-[4-(1-pyrrolidinylmethyl)phenyl]-2-furancarboxamide] | ≥ 6 |
| Cc1cc(C(=O)NC2CCOCC2)nn1Cc1cc(Cl)cc2cc(C(C)C)oc12 [Example 60, 1-{[5-chloro-2-(1-methylethyl)-1-benzofuran-7-yl]methyl}-5-methyl-N-(tetrahydro-2H-pyran-4-yl)-1H-pyrazole-3-carboxamide] | ≥ 6 |
| CCNCc1ccc(NC(=O)c2cc(C)n(Cc3cc(Cl)cc4cc(C(C)C)oc34)n2)cc1 [Example 15, 1-{[5-Chloro-2-(1-methylethyl)-1-benzofuran-7-yl]methyl}-N-{4-[(ethylamino)methyl]phenyl}-5-methyl-1H-pyrazole-3-carboxamide hydrochloride] | ≥ 6 |
| CC(C)c1cc2cc(Cl)cc(Cc3ccc(C(=O)NCCN(C)C)o3)c2o1 [Example 58, 5-{[5-Chloro-2-(1-methylethyl)-1-benzofuran-7-yl]methyl}-N-[2-(dimethylamino)ethyl]-2-furancarboxamidehydrochloride] | ≥ 6 |
| Cc1cc(C(=O)O)nn1Cc1cc(Br)cc2cc(C(C)C)oc12 [Example 19, 1-{[5-Bromo-2-(1-methylethyl)-1-benzofuran-7-yl]methyl}-5-methyl-1H-pyrazole-3-carboxylic Acid] | ≥ 6 |
| Cc1cc(C(=O)O)nn1Cc1cccc2cc(C(C)C)oc12 [Example 20, 5-Methyl-1-{[2-(1-methylethyl)-1-benzofuran-7-yl]methyl}-1H-pyrazole-3-carboxylic Acid] | ≥ 6 |
| Cc1cc(NC(=O)OCC2CCNCC2)nn1Cc1cc(Cl)cc2cc(C(C)C)oc12 [Example 4, 4-Piperidinylmethyl (1-{[5-chloro-2-(1-methylethyl)-1-benzofuran-7-yl]methyl}-5-methyl-1H-pyrazol-3-yl)carbamate Hydrochloride] | ≥ 6 |
| CC(C)c1cc2cc(Cl)cc(Cc3ccc(-c4nc5cc(CO)ccc5[nH]4)o3)c2o1 [Example 9, [2-(5-{[5-Chloro-2-(1-methylethyl)-1-benzofuran-7-yl]methyl}-2-furanyl)-1H-benzimidazol-5-yl]methanol Hydrochloride] | ≥ 6 |
| CCNCc1ccc(C(=O)Nc2cc(C)n(Cc3cc(Cl)cc4cc(C(C)C)oc34)n2)cc1 [Example 66, N-(1-{[5-chloro-2-(1-methylethyl)-1-benzofuran-7-yl]methyl}-5-methyl-1H-pyrazol-3-yl)-4-[(ethylamino)methyl]benzamide] | ≥ 6 |
| Cc1cc(C(=O)O)nn1Cc1cc(Cl)cc2cc(C3CCCCC3)oc12 [Example 26, 1-[(5-Chloro-2-cyclohexyl-1-benzofuran-7-yl)methyl]-5-methyl-1H-pyrazole-3-carboxylic Acid] | ≥ 6 |
| CCNCc1ccc(NC(=O)c2ccc(Cc3cc(Cl)cc4cc(C(C)C)oc34)o2)cc1 [Example 56, 5-{[5-Chloro-2-(1-methylethyl)-1-benzofuran-7-yl]methyl}-N-{4-[(ethylamino)methyl]phenyl}-2-furancarboxamide Hydrochloride] | ≥ 6 |
| Cc1cc(C(=O)O)nn1Cc1cc(C#N)cc2cc(C(C)C)oc12 [Example 25, 1-{[5-Cyano-2-(1-methylethyl)-1-benzofuran-7-yl]methyl}-5-methyl-1H-pyrazole-3-carboxylic Acid] | ≥ 6 |
| CNCc1ccc2[nH]c(-c3ccc(Cc4cc(Cl)cc5cc(C(C)C)oc45)o3)nc2c1 [Example 10, {[2-(5-{[5-Chloro-2-(1-methylethyl)-1-benzofuran-7-yl]methyl}-2-furanyl)-1H-benzimidazol-5-yl]methyl}methylamine Hydrochloride] | ≥ 6 |
